{"source": "PubChem BioAssay AID901", "about": "(National Center for Advancing Translational Sciences (NCATS), 2007)", "note": "“And” between values parts separate entries of the source, which are not always exact repeats. Equal values may be shown once. This is one part of the list. The main result of the screen is listed elsewhere. These columns were measured beside it and carry no call. Compounds called inactive in the main read-out are mostly missing here. The note in brackets gives the kind of curve behind each potency; many fits are weak.", "data": [{"assay": "qHTS Assay for Identifying the Cell-Membrane Permeable IMPase Inhibitors", "conditions": "CHO-M1 cells, IP1 accumulation, HTRF TR-FRET ratio; measured here: donor channel 620 nm AC50", "values": [{"molecule": "COc1ccc(-n2c(C)cc(/C=C3\\C(=O)NN(c4ccccc4)C3=O)c2C)cc1", "AC50": "17.8 µM [rising, single point]"}, {"molecule": "Oc1ccc(C2Nc3cccc4cccc(c34)N2)c(O)c1", "AC50": "15.8 µM [falling, single point]"}, {"molecule": "CCN(CC(=O)NCc1cccs1)c1nnnn1-c1ccccc1", "AC50": "3.98 µM [falling, single point]"}, {"molecule": "COC(=O)c1ccc(COC(=O)C(CCS(C)(=O)=O)N2C(=O)c3ccccc3C2=O)cc1", "note": "(stereo unspecified)", "AC50": "0.02 µM [falling, full curve, poor fit]"}, {"molecule": "O=C(c1ccco1)c1nnn(Cc2ccccc2)c1-c1ccccc1", "AC50": "1.26 µM [falling, partial curve, poor fit]"}, {"molecule": "Cc1c(C(=O)Nc2ccc(Cl)cn2)oc2ccccc12", "AC50": "5.01 µM [falling, single point]"}, {"molecule": "NC(=O)CC(NC(=O)OCc1ccccc1)C(=O)O", "note": "(stereo unspecified)", "AC50": "0.126 µM [falling, full curve, poor fit]"}, {"molecule": "COc1ccc(CNC(=O)C(=O)NCC2CCCO2)cc1", "note": "(stereo unspecified)", "AC50": "0.01 µM [rising, full curve, poor fit]"}, {"molecule": "CC(C)(C)c1ccc(/C=C/C(=O)Nc2ccc(S(N)(=O)=O)cc2)cc1", "AC50": "35.5 µM [falling, single point]"}, {"molecule": "Cc1cc(C)c(NC(=O)COc2nc3ccccc3nc2C)c(C)c1", "AC50": "31.6 µM [rising, single point]"}, {"molecule": "COC(=O)c1[nH]c2cc(OC)c(OC)cc2c1NC(=O)Oc1ccccc1", "AC50": "20 µM [falling, partial curve, poor fit]"}, {"molecule": "N#CC1=C(N)N(c2ccccc2)C(c2cccc([N+](=O)[O-])c2)C1(C#N)C#N", "note": "(stereo unspecified)", "AC50": "0.0501 µM [rising, full curve, poor fit]"}, {"molecule": "CC(C)NS(=O)(=O)c1ccc(OCC(=O)Nc2ccc3c(c2)OCCO3)cc1", "AC50": "35.5 µM [falling, single point]"}, {"molecule": "Clc1ccc(-c2cc(COc3ccc4ccccc4c3)no2)cc1", "AC50": "25.1 µM [rising, single point]"}, {"molecule": "CCCn1c(CC)nc([N+](=O)[O-])c1Sc1ccc(C)cc1", "AC50": "3.98 µM [falling, partial curve, poor fit]"}, {"molecule": "O=C(C1CCCN(S(=O)(=O)c2ccc(Br)s2)C1)N1CCN(c2ccccc2)CC1", "note": "(stereo unspecified)", "AC50": "0.00501 µM [falling, full curve, poor fit]"}, {"molecule": "COc1ccc(-c2n[nH]c(C)c2-c2ccc(OC)c(OC)c2)c(O)c1", "AC50": "2.51 µM [rising, single point]"}, {"molecule": "COc1ccc(CCNC(=O)CSc2nc(-c3ccc(F)cc3)cc(C(F)(F)F)n2)cc1OC", "AC50": "0.00708 µM [rising, full curve, poor fit]"}, {"molecule": "CNC(=O)CC(=O)Nc1ccccc1C(=O)O", "AC50": "0.158 µM [falling, full curve, poor fit]"}, {"molecule": "COc1ccc(/C(O)=C2/C(=O)C(=O)N(CCN(C)C)C2c2ccc(OC)c(OC)c2)c(C)c1", "note": "(stereo unspecified)", "AC50": "25.1 µM [falling, single point]"}, {"molecule": "Cc1c(C(=O)OC2CCCC2)[nH]c2c1C(=O)CC(c1ccco1)C2", "note": "(stereo unspecified)", "AC50": "0.00447 µM [falling, full curve, poor fit]"}, {"molecule": "Cc1cc(C(C)(C)C)c(O)c(C)c1CC1=NCCN1", "AC50": "5.01 µM [rising, single point]"}, {"molecule": "Cc1ccc(Cn2c(CN3CCOCC3)nc3c2c(=O)[nH]c(=O)n3C)cc1", "AC50": "31.6 µM [rising, single point]"}, {"molecule": "CCOc1cccc(Oc2ccc(C(F)(F)F)cn2)c1", "AC50": "3.98 µM [rising, single point]"}, {"molecule": "O=C(O)CCSc1ccc2ccccc2n1", "AC50": "20 µM [rising, partial curve] and 10 µM [rising, partial curve]"}, {"molecule": "Cc1ccc(-c2cc(C(F)(F)F)c(C#N)c(SCC(=O)Nc3ccccc3F)n2)cc1", "AC50": "0.794 µM [falling, full curve, poor fit]"}, {"molecule": "O=C(CSc1nc2ccccc2nc1SCC(=O)N1CCCCC1)N1CCCCC1", "AC50": "25.1 µM [rising, single point]"}, {"molecule": "O=C(NCC1CCCO1)c1nc2c(nnn2Cc2ccccc2Cl)c(=O)[nH]1", "note": "(stereo unspecified)", "AC50": "5.01 µM [falling, single point]"}, {"molecule": "O=C(c1ccccc1)c1ccc(CN2C(=O)c3ccccc3C2=O)o1", "AC50": "25.1 µM [falling, single point]"}, {"molecule": "Cc1ccc2cc(CCNC(=O)CC(C)(C)C)c(=O)[nH]c2c1C", "AC50": "22.4 µM [rising, partial curve]"}, {"molecule": "COc1ccc(NC(=O)CSC2=NC(=O)CC(C)=N2)cc1", "AC50": "10 µM [falling, partial curve]"}, {"molecule": "COc1ccc(NC(=O)C(C/C=C(/C)Cl)C(C)=O)cc1", "note": "(stereo unspecified)", "AC50": "0.794 µM [falling, full curve]"}, {"molecule": "Cc1onc(-c2ccccc2Cl)c1C(=O)Nc1nnc(-c2ccc(F)cc2)s1", "AC50": "14.1 µM [rising, single point]"}, {"molecule": "COCCNC(=O)c1onc(CSc2ccc(Cl)cc2)c1C(=O)O", "AC50": "0.631 µM [rising, full curve, poor fit]"}, {"molecule": "O=c1c2c3c(sc2nnn1Cc1ccc(Br)cc1)CCCC3", "AC50": "3.16 µM [falling, single point]"}, {"molecule": "O=C(NCC1c2ccccc2CCN1C(=O)CN1CCOCC1)C1CCCCC1", "note": "(stereo unspecified)", "AC50": "0.02 µM [rising, full curve, poor fit]"}, {"molecule": "O=C(CNC(=O)c1ccccc1F)N/N=C/c1cn[nH]c1-c1ccccc1", "AC50": "4.47 µM [rising, full curve, poor fit]"}, {"molecule": "COc1ccccc1-c1nnc(SCC(=O)Nc2c(Cl)cccc2Cl)o1", "AC50": "25.1 µM [falling, partial curve, poor fit]"}, {"molecule": "COc1cc(/C=N/NC(=O)c2ccc(O)cc2)ccc1Oc1ccc([N+](=O)[O-])cn1", "AC50": "35.5 µM [falling, single point]"}, {"molecule": "O=S(=O)(c1ccc2c(c1)OCCO2)N1CCC(n2nnc3cc(F)ccc32)CC1", "AC50": "0.00708 µM [falling, full curve, poor fit]"}, {"molecule": "C/C(=C\\C(=O)Nc1nccs1)c1ccccc1", "AC50": "5.01 µM [rising, single point]"}]}]}
